Measured values reported in the supplement of paper PMC12823440, “Inhibitors supercharge kinase turnover through native proteolytic circuits” (Nature, 2025).
Where a name gives a salt, the structure may show the parent alone. The list shows a part of the results. The calls rarely recur for the same compound in another form.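 Kinases, fused to nanoluciferase, were expressed in K562 cells; luminescence was measured every 4 h from 2 to 18 h as percent of control (DMSO = 100%, positive control = 0%). A time point is decreased if signal falls significantly (2 sigma). Hits were called by the authors by a rule that is not shown; the count of time points alone does not decide it.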

Chains of the proteins cited; added tags and fusions are not shown. Lines headed by an entry give the natural chain unless they say otherwise; changes in a name come on top.
UniProt Q9UM73: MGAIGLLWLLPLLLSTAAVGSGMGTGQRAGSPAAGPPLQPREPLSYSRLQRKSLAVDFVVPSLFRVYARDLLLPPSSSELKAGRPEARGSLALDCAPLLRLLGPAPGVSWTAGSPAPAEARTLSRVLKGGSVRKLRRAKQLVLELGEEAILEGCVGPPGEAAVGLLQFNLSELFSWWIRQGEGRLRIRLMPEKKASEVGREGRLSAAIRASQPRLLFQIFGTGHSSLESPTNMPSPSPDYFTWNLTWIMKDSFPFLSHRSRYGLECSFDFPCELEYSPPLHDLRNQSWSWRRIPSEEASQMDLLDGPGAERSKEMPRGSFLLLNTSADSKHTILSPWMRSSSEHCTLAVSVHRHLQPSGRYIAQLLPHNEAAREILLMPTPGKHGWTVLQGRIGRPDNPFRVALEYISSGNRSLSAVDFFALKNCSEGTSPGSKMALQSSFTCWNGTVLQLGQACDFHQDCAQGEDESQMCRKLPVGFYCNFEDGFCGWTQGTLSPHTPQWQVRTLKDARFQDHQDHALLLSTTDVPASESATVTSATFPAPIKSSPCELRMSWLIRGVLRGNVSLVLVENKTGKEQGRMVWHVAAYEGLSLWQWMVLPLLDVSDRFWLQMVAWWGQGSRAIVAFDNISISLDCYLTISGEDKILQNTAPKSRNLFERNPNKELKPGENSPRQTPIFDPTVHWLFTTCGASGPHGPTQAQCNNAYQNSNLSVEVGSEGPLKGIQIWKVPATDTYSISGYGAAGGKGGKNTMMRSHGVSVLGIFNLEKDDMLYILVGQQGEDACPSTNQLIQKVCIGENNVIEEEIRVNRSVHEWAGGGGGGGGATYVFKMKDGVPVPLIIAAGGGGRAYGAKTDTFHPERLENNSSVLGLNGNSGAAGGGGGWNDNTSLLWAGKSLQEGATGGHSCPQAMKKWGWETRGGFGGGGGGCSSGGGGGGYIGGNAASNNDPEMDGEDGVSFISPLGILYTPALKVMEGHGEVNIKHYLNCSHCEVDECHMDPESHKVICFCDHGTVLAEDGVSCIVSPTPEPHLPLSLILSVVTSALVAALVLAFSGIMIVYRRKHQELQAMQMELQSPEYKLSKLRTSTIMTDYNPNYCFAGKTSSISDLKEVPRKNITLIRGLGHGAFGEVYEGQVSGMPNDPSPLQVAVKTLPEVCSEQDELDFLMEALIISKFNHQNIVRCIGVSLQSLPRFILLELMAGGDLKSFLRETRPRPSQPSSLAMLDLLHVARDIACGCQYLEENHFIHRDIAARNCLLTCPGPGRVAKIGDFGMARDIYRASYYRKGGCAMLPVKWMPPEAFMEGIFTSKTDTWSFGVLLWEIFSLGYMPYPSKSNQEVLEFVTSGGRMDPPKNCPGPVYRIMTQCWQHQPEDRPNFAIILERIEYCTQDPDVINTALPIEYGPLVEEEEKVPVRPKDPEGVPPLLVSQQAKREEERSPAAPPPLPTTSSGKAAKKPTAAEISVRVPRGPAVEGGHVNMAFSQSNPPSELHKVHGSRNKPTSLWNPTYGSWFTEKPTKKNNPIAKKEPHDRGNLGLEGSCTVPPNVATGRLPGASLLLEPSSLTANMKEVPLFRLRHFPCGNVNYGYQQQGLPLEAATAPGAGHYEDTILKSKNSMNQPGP
UniProt P10398: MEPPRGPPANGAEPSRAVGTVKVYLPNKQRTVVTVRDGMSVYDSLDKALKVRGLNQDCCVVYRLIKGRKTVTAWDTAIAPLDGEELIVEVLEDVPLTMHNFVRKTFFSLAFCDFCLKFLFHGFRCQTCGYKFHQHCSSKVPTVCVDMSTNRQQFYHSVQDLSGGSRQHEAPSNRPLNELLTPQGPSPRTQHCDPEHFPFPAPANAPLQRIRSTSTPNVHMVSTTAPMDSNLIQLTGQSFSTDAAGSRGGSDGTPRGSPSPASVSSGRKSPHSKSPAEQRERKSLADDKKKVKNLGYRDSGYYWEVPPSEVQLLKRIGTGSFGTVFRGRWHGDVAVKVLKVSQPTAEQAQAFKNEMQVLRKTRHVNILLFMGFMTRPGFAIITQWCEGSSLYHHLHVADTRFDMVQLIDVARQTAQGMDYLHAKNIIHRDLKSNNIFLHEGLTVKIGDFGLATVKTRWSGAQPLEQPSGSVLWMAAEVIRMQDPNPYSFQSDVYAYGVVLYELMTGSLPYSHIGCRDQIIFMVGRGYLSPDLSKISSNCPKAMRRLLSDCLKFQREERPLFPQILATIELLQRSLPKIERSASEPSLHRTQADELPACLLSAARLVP
UniProt O14965: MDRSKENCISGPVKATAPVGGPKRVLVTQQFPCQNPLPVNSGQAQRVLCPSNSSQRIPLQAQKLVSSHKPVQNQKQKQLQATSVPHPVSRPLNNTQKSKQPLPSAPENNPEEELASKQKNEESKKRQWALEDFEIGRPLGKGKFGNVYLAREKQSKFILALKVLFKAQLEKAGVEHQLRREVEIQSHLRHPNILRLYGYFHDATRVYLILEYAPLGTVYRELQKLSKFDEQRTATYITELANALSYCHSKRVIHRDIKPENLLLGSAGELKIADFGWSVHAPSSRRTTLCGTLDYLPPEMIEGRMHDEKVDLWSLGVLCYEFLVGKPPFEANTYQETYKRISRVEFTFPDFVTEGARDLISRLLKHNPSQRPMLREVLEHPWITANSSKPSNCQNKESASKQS
UniProt Q96GD4, whole entry: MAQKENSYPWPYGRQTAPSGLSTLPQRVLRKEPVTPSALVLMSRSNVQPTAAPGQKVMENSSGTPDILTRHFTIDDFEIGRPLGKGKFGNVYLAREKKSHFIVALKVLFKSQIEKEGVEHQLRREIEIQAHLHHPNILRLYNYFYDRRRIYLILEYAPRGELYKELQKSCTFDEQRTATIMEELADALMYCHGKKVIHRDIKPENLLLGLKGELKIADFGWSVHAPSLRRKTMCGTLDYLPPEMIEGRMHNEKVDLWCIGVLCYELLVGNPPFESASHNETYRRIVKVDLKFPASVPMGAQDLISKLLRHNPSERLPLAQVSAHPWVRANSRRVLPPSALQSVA
UniProt Q9UQB9: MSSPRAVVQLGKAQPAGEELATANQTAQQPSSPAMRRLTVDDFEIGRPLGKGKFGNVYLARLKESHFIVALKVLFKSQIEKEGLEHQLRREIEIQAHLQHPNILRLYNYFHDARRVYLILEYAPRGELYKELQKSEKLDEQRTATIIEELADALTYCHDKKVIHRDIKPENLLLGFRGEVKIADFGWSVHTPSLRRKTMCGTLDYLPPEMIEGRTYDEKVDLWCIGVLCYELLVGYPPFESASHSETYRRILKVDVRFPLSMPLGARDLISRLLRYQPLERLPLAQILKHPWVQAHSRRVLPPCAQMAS
UniProt P51451: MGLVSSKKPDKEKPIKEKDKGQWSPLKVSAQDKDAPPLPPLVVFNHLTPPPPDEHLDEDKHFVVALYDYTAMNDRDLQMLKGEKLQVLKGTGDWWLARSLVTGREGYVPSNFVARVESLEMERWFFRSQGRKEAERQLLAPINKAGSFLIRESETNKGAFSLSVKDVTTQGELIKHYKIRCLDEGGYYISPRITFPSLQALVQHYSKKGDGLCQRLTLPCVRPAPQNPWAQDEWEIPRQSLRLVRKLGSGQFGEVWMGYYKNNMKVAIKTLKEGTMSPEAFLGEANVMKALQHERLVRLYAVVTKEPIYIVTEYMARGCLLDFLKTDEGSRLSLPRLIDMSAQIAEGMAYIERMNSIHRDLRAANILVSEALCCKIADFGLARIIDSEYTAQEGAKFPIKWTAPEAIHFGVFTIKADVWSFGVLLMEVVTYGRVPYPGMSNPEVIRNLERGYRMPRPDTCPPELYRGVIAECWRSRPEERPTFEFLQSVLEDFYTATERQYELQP
UniProt P51813: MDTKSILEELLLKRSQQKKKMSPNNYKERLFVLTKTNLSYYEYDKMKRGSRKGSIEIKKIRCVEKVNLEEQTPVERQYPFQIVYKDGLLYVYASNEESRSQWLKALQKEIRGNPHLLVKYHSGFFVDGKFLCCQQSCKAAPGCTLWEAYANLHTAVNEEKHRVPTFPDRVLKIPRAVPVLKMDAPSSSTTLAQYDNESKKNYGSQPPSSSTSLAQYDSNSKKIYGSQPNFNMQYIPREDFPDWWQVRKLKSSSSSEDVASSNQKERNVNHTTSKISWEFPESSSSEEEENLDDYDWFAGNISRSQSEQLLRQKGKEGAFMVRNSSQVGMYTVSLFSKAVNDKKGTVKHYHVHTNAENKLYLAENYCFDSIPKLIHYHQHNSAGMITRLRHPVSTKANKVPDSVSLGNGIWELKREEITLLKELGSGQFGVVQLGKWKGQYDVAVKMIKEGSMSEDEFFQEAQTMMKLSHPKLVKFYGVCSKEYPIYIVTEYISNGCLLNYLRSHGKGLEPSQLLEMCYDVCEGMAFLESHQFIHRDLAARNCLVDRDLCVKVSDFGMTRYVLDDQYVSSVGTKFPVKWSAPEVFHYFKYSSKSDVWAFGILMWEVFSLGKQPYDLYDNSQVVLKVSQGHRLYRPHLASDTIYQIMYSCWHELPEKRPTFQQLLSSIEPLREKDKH
UniProt P15056, whole entry, looked up: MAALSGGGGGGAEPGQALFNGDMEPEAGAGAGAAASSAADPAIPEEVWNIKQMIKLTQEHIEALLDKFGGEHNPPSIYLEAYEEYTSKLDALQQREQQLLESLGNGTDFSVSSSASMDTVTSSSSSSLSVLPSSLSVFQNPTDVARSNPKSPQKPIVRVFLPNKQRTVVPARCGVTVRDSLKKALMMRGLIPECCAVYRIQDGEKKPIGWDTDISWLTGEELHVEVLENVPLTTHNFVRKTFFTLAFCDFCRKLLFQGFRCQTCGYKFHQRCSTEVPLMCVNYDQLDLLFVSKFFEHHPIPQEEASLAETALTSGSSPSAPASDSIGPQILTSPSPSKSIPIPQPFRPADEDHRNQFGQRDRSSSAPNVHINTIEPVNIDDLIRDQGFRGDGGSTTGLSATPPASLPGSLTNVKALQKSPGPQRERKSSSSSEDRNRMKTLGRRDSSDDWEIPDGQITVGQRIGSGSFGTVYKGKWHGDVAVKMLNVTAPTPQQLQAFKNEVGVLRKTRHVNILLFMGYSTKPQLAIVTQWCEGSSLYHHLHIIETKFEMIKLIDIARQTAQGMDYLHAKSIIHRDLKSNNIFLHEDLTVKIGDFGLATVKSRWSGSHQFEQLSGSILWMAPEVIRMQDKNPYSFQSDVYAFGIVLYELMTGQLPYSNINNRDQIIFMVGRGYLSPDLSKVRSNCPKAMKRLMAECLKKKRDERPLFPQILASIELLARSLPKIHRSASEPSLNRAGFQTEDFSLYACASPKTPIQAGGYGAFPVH
UniProt Q15131: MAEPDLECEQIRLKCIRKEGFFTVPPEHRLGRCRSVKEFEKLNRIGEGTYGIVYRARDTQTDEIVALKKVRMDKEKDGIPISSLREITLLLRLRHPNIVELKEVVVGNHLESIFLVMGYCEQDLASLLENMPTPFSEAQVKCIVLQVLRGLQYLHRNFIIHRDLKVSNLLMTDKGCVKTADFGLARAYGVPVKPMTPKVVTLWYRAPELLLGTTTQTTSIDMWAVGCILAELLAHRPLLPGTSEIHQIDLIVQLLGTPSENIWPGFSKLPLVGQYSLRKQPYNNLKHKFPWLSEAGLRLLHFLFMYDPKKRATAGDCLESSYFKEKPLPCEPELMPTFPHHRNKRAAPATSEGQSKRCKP
UniProt Q00526: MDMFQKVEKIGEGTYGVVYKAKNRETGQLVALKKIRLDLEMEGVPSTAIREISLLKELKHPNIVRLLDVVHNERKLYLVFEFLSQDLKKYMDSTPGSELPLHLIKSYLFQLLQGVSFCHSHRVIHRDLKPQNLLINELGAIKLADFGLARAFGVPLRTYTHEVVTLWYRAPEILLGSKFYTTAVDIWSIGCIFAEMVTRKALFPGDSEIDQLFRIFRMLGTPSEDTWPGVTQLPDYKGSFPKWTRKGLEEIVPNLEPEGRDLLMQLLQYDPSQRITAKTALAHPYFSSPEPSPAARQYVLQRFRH
UniProt P11802: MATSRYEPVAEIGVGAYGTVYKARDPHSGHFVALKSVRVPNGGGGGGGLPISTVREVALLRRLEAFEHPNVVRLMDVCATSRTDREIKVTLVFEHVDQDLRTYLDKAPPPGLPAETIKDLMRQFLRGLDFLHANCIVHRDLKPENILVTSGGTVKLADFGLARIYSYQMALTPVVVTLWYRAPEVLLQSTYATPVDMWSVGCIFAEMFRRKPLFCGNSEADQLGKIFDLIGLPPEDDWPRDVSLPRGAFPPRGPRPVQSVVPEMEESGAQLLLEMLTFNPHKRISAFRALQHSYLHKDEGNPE
UniProt Q00535, whole entry, looked up: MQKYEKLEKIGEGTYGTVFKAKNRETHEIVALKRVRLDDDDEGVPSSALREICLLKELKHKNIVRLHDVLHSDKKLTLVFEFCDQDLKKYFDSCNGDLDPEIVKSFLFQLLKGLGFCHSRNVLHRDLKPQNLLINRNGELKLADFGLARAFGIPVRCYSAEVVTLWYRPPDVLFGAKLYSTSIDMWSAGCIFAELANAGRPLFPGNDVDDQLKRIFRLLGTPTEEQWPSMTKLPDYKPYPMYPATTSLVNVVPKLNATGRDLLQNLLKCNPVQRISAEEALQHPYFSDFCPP

How the values were obtained:
Assay in all cases: kinase-Nluc reporter destabilization hit call (1 = scored as downregulated) (binary); higher = compound decreases kinase abundance
Conditions in all cases: 10 µM; K562; 2-18 h
ABL1 = ABL1 (UniProt P00519)
AKT1 = AKT1 (UniProt P31749)
ALK = ALK (UniProt Q9UM73)
ARAF = ARAF (UniProt P10398)
AURKA = AURKA (UniProt O14965)
AURKB = AURKB (UniProt Q96GD4)
AURKC = AURKC (UniProt Q9UQB9)
BLK = BLK (UniProt P51451)
BMX = BMX (UniProt P51813)
BRAF = BRAF (UniProt P15056)
BRAF_V600E = tested on: BRAF_V600E
BTK = BTK (UniProt Q06187)
CAMK2A = CAMK2A (UniProt Q9UQM7)
CAMK2G = CAMK2G (UniProt Q13555)
CDK10 = CDK10 (UniProt Q15131)
CDK2 = CDK2 (UniProt P24941)
CDK3 = CDK3 (UniProt Q00526)
CDK4 = CDK4 (UniProt P11802)
CDK5 = CDK5 (UniProt Q00535)
CDK6 = CDK6 (UniProt Q00534)

Measured: kinase-Nluc reporter destabilization hit call

COc1ccnc(C[S+]([O-])c2nc3cc(-n4cccc4)ccc3[nH]2)c1C (stereo not given) [Ilaprazole (sodium)]
inactive: ABL1 = 0 | AKT1 = 0 | ALK 0 | ARAF 0 | AURKA 0 | AURKB 0 | AURKC 0 | BLK 0 | BMX 0 | BRAF 0 | BRAF_V600E 0 | BTK 0 | CAMK2A 0 | CAMK2G 0 | CDK10 = 0 | CDK2 = 0 | CDK3 = 0 | CDK4 = 0 | CDK5 = 0 | CDK6 = 0

N=C(N)NC(=O)c1nc(Cl)c(N)nc1N [Amiloride hydrochloride dihydrate]
inactive: ABL1 = 0 | AKT1 = 0 | ALK 0 | ARAF 0 | AURKA 0 | AURKB 0 | AURKC 0 | BLK 0 | BMX 0 | BRAF 0 | BRAF_V600E 0 | BTK 0 | CAMK2A 0 | CAMK2G 0 | CDK10 = 0 | CDK2 = 0 | CDK3 = 0 | CDK4 = 0 | CDK5 = 0 | CDK6 = 0

FC(F)(F)c1ccc(CNc2ccc(Cc3c[nH]c4ncc(Cl)cc34)cn2)cn1 [Pexidartinib]
inactive: ABL1 = 0 | AKT1 = 0 | ALK 0 | ARAF 0 | AURKA 0 | AURKB 0 | AURKC 0 | BLK 0 | BMX 0 | BRAF 0 | BRAF_V600E 0 | BTK 0 | CAMK2A 0 | CAMK2G 0 | CDK10 = 0 | CDK2 = 0 | CDK3 = 0 | CDK4 = 0 | CDK5 = 0 | CDK6 = 0

Cn1cc(-c2cnc3ccc4ccc(CS(=O)(=O)NCc5ccccn5)cc4c(=O)c3c2)cn1
inactive: ABL1 = 0 | AKT1 = 0 | ALK 0 | ARAF 0 | AURKA 0 | AURKB 0 | AURKC 0 | BLK 0 | BMX 0 | BRAF 0 | BRAF_V600E 0 | BTK 0 | CAMK2A 0 | CAMK2G 0 | CDK10 = 0 | CDK2 = 0 | CDK3 = 0 | CDK4 = 0 | CDK5 = 0 | CDK6 = 0
